Results taken from the supplement of paper PMC10338343.
± gives the standard deviation. This is one part of the list. The uncertainty is large for many entries.

What follows are sequences tested on EfPiwi piRISC loaded with L1MC piRNA (26 nt) (assay: pre-steady-state target cleavage rate (min^-1); guide: L1MC piRNA 5'p-UAACUAAAUACUAUGCAAGCUGUAGG; MIWI and MILI are mouse PIWI proteins and EfPiwi is from a freshwater sponge; tags in brackets are library labels; higher = faster piRNA-guided slicing of the target). Conditions: auxiliary factor: 500 nM Ephydatia muelleri Gtsf1.
Protocol: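 Cleave-'n-Seq: a library of target RNAs (target site in constant flanks) at […] was incubated with 1 nM active freshwater sponge Ephydatia fluviatilis Piwi piRISC (synthetic 5'-monophosphorylated piRNA guide) with or without 500 nM EmGtsf1 at 33 °C for 1 min to 16 h. Uncleaved targets were sequenced and the pooled three trials fitted to a burst-and-steady-state model to give the pre-steady-state cleavage rate (min^-1). Sequence is the target site only. Fits with R² ≤ 0 are excluded.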
In the case of UCCUGGAUCAGCUUGCAUAGUAUAUAGAAA, the “pre-steady-state target cleavage rate” value is reported as 0.00112 ± 0.0038. UCCUGGAUCAGCUUGCAUAGUAUUUAGUCUA was tested, and the “pre-steady-state target cleavage rate” value was 0.00289 ± 0.0027. With UCCUGGAUGUCGAACCAUAGUUAUUUAGUUA the “pre-steady-state target cleavage rate” value was 0.000277 ± 0.017. In the case of UCCUGGUACAGCUUGCAUAGUAUUUACUUA, the “pre-steady-state target cleavage rate” value is reported as 0.000778 ± 0.0099. UCCUGGUACAGCUACGAUAGUAUUUUCAAA was tested, and the “pre-steady-state target cleavage rate” value was 0.000203 ± 0.038. With UCCUGGAUGUCCUUGGAUAGUAUUUAGUUA the “pre-steady-state target cleavage rate” value was 0.00248 ± 0.0031. In the case of UCCUCCUAAGCUUGCAUAGUAUUUAGUUA, the “pre-steady-state target cleavage rate” value is reported as 0.0155 ± 0.0059. With UCCUGGAACACGAUGCAUAGUAUUUAGUAA the “pre-steady-state target cleavage rate” value was 0.00251 ± 0.0027. With UCCUGGAUGAGCUUCGUUAGUAUUUAGUUA the “pre-steady-state target cleavage rate” value was 0.000236 ± 0.012. UCCUGCUGCAGCUUGCAUAGUAUUUAGUUA was tested, and the “pre-steady-state target cleavage rate” value was 0.0729 ± 0.016. For UCCUGCUACAGCAUGCAUAGUAAUUAGUUA, the “pre-steady-state target cleavage rate” value was 0.007 ± 0.0024. For UCCUGGAUGUGCUUGCAGAGUAUUUAGUUA, the “pre-steady-state target cleavage rate” value was 0.00217 ± 0.0036. For UCCUGGAUGUCGUUACAUAGUAUUUAGUUA, the “pre-steady-state target cleavage rate” value was 0.00184 ± 0.0056. For UCCUGGAUGUGCUUGCAUAGUAUUUAUGUUA, the “pre-steady-state target cleavage rate” value was 0.00172 ± 0.0041. With UCCUGGUACAGCUUGCAUAGUUAAUAGUUA the “pre-steady-state target cleavage rate” value was 0.00196 ± 0.0044. In the case of UCCUGGAUGAGCUUGCAUAGUAUUAAGUUA, the “pre-steady-state target cleavage rate” value is reported as 0.00469 ± 0.0021. UCCUGGAACAGCAUCCAUAGUAUUUAGUUA was tested, and the “pre-steady-state target cleavage rate” value was 0.0025 ± 0.0021. In the case of UCCUGGUACAGCUUGCAUAGUAUAUACUUA, the “pre-steady-state target cleavage rate” value is reported as 0.000904 ± 0.0044. In the case of UCCUGGAUGUGCUUGCUAUGUAUUUAGUAA, the “pre-steady-state target cleavage rate” value is reported as 0.000479 ± 0.0081. For UCCUGGAUCAGGUUGCAUAGUUUUUAGUUA, the “pre-steady-state target cleavage rate” value was 0.00481 ± 0.0024. With UCCUGGAACAGCUUGCAUACGUAUUUAGUUA the “pre-steady-state target cleavage rate” value was 0.0016 ± 0.003. With UCCUGGUACAGCUAGCAUAGUAUUUAGUUA the “pre-steady-state target cleavage rate” value was 0.0085 ± 0.0027. In the case of UCCUCCUACAGCUUGCAUAGUAUUUAGCUA, the “pre-steady-state target cleavage rate” value is reported as 0.00335 ± 0.0016. UCCUGGAUGAGCUUGCAUAGUAUAUACAAA was tested, and the “pre-steady-state target cleavage rate” value was 0.000539 ± 0.0091.

Same assay, conditions: auxiliary factor: none (no Gtsf1)
In the case of UCCUGGAUCAGCUUGCAUAGUAUAUAGAAA, the “pre-steady-state target cleavage rate” value is reported as 0.000392 ± 0.018. In the case of UCCUGGUACAGCUUGCAUAGUAUUUACUUA, the “pre-steady-state target cleavage rate” value is reported as 0.000796 ± 0.015. With UCCUGGUACAGCUACGAUAGUAUUUUCAAA the “pre-steady-state target cleavage rate” value was 0.000188 ± 0.038. With UCCUGGAUGUCCUUGGAUAGUAUUUAGUUA the “pre-steady-state target cleavage rate” value was 0.000195 ± 0.026. In the case of UCCUGGAACACGAUGCAUAGUAUUUAGUAA, the “pre-steady-state target cleavage rate” value is reported as 0.000196 ± 0.04. UCCUGGAUGUCGUUACAUAGUAUUUAGUUA was tested, and the “pre-steady-state target cleavage rate” value was less than 0.0001. In the case of UCCUGGAUGUGCUUGCAUAGUAUUUAUGUUA, the “pre-steady-state target cleavage rate” value is reported as 0.000311 ± 0.042. For UCCUGGUACAGCUUGCAUAGUUAAUAGUUA, the “pre-steady-state target cleavage rate” value was 0.00331 ± 0.0044. With UCCUGGAACAGCAUCCAUAGUAUUUAGUUA the “pre-steady-state target cleavage rate” value was 0.000334 ± 0.017. UCCUGGUACAGCUUGCAUAGUAUAUACUUA was tested, and the “pre-steady-state target cleavage rate” value was less than 0.0001. With UCCUGGAUGUGCUUGCUAUGUAUUUAGUAA the “pre-steady-state target cleavage rate” value was 0.000154 ± 0.054. With UCCUGGAUCAGGUUGCAUAGUUUUUAGUUA the “pre-steady-state target cleavage rate” value was 0.000404 ± 0.027. For UCCUGGUACAGCUAGCAUAGUAUUUAGUUA, the “pre-steady-state target cleavage rate” value was 0.00072 ± 0.0081. For “UCCUGGAACAGCUUGCAUAGAUAAAUCAAA [g11:g23:cont:t1A]”, the “pre-steady-state target cleavage rate” value was 0.000549 ± 0.013. In the case of UCCUCCUACAGCUUGCAUAGUAUUUAGCUA, the “pre-steady-state target cleavage rate” value is reported as 0.000483 ± 0.0095. With UCCUGGAUGAGCUUGCAUAGUAUAUACAAA the “pre-steady-state target cleavage rate” value was 0.000208 ± 0.049.
